Experimental findings from paper doi:10.1101/2021.06.28.450115 are described below.

By UniProt entry, the sequences of proteins in these tests, tags left out. Residues count along the entry.
UniProt P38646, residues 47-679: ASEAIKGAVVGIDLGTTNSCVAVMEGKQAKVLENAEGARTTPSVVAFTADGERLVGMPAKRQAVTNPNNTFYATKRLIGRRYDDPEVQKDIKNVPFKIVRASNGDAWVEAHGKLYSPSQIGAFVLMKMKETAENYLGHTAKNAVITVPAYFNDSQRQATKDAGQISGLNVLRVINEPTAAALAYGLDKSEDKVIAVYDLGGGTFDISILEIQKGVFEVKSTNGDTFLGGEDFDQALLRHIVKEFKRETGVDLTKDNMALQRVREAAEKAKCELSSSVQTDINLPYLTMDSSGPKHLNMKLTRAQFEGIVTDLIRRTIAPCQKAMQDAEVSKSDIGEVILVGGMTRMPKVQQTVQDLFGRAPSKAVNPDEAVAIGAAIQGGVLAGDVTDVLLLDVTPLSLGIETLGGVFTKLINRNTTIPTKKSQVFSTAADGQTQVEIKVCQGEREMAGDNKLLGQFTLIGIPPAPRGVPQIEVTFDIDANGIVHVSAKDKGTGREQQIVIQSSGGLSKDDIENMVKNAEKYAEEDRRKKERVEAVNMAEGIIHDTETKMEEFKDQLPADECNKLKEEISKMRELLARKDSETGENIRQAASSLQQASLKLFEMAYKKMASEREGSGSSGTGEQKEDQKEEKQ
UniProt P08238: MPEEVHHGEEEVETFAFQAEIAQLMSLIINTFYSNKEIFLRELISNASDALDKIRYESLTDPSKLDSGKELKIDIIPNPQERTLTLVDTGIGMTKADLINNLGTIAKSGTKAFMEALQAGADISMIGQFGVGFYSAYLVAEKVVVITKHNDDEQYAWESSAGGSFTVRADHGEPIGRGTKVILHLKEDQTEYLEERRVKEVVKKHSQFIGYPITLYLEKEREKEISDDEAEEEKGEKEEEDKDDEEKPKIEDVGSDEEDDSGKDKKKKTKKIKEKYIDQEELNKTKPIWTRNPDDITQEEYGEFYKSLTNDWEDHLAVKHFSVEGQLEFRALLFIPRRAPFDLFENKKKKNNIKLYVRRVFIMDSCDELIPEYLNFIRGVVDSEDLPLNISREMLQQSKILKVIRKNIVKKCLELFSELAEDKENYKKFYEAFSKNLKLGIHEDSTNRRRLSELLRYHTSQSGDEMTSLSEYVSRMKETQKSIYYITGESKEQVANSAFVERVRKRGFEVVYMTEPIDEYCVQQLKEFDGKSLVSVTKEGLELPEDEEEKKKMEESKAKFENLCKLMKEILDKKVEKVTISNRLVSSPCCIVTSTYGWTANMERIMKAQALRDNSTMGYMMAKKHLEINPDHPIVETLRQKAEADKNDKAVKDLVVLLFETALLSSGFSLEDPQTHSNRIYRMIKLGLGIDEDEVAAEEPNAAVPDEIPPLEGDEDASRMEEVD
UniProt P11021, residues 19-654: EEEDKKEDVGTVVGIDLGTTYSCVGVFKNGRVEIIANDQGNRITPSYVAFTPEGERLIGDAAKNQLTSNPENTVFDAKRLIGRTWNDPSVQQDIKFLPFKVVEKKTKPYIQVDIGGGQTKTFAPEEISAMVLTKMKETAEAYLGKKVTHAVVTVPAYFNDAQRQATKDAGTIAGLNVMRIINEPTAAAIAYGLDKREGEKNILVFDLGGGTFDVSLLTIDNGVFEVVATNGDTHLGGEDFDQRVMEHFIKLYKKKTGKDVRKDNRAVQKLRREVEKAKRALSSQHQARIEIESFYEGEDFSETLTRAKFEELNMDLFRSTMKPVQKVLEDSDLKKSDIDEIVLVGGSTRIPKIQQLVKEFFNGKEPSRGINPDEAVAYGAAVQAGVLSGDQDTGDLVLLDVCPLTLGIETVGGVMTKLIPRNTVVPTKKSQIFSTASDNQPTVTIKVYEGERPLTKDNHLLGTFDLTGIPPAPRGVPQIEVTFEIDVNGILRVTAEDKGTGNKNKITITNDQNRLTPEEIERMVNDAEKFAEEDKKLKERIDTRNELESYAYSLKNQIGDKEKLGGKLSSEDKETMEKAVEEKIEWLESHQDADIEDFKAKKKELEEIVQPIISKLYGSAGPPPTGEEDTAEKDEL
UniProt P11142: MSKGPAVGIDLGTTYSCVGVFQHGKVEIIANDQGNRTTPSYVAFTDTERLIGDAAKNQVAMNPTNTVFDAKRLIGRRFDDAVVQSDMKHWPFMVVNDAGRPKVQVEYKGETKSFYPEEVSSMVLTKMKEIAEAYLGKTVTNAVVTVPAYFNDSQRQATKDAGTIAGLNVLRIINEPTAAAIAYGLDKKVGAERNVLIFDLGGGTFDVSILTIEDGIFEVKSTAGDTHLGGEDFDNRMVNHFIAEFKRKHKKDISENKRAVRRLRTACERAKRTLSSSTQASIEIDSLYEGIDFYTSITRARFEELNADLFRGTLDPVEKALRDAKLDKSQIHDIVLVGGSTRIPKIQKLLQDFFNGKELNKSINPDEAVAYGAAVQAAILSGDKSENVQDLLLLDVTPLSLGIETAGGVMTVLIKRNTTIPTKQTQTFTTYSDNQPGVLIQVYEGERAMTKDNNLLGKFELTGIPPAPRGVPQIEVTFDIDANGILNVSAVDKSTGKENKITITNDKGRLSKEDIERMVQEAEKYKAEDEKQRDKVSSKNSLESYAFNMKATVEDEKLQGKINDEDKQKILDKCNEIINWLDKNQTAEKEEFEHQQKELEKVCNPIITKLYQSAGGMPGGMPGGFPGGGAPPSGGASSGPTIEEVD
UniProt Q00987: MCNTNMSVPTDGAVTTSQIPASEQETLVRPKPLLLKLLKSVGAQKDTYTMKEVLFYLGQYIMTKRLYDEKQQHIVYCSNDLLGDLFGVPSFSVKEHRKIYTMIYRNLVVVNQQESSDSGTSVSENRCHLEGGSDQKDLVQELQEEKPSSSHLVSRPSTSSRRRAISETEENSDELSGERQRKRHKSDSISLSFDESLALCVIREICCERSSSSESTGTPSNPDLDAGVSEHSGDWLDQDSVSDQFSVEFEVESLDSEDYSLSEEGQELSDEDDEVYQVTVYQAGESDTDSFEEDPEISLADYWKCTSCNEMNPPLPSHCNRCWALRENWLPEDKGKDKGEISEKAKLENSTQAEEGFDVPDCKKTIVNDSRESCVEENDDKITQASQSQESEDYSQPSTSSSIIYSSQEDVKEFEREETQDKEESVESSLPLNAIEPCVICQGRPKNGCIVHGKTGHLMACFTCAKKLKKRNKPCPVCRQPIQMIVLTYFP
UniProt P13010: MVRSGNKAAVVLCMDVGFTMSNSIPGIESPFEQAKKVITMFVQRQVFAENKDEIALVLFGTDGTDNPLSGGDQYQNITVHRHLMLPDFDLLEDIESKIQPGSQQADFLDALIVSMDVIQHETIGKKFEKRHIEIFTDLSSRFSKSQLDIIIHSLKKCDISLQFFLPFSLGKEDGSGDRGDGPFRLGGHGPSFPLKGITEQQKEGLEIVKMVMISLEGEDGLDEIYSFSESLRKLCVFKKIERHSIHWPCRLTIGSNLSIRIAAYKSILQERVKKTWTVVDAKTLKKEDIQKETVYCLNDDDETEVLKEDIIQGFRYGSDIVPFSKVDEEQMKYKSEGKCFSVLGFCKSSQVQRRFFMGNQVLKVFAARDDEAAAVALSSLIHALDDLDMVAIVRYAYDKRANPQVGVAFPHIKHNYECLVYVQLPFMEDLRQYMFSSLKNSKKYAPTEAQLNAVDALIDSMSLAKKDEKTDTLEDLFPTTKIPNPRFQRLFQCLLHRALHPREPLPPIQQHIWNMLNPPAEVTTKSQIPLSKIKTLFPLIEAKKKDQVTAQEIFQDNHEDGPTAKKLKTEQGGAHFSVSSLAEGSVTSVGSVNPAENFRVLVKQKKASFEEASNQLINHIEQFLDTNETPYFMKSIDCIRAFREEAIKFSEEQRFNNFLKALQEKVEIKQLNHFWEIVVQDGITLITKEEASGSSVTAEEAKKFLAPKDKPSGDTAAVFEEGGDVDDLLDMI

No constants are given. Whether binding was seen depends on the method and setting. Binding seen in cells or lysates may run through a third protein. These calls come from enrichment with a bait or labelling near it, and not all partners need be listed. For some of these results: A no says only that the protein was not detected with the bait.

One test concerns the target T1, DAB2IP (endogenous, SW48) (human (endogenous in SW48)) (UniProt Q5VWQ8).
T1 sequence: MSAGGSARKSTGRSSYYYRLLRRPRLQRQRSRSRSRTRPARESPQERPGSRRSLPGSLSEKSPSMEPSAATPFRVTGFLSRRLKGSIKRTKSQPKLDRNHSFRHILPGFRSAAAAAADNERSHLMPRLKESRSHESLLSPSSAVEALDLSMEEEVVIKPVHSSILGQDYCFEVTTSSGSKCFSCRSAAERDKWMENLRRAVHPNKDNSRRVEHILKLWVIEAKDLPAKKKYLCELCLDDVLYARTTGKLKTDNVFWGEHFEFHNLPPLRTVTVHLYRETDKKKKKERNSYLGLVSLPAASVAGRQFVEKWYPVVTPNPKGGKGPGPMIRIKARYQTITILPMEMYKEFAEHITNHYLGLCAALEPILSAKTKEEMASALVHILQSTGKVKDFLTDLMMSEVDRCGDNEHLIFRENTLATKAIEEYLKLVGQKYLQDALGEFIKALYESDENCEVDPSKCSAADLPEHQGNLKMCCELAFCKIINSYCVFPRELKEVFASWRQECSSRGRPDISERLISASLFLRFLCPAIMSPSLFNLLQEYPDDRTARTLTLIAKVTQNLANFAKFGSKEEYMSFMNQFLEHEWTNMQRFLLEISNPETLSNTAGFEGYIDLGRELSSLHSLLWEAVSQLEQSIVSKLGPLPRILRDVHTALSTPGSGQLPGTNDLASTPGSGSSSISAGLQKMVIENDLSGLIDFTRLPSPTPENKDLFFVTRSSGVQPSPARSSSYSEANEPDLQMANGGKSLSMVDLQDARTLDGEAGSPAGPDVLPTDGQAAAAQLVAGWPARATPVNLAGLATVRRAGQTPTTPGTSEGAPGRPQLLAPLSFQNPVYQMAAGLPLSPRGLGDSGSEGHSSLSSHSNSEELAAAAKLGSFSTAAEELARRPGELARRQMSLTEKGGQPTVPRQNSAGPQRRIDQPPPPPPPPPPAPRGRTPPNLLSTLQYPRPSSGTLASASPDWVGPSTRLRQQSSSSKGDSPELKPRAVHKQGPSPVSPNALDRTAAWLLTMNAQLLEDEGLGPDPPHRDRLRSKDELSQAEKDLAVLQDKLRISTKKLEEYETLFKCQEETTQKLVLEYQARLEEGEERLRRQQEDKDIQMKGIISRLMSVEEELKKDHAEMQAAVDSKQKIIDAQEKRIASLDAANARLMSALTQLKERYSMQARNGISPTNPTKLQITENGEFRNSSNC
The test can be described thus: affinity purification with mass spectrometry.
As to “GRP75 (endogenous, SW48) (from UniProt P38646 47-679)”, the binding result is listed as “binds”.
For the substance “HSP90AB1 (endogenous, SW48) (from UniProt P08238 1-724)”, the binding entry is “binds”.
With “HSPA5 (endogenous, SW48) (from UniProt P11021 19-654)”, the binding result is given as “binds”.
In the case of “HSPA8 (endogenous, SW48) (from UniProt P11142 1-646)”, the binding entry is “binds”.
For the substance “MDM2 (endogenous, SW48) (from UniProt Q00987 1-491)”, the binding result is recorded as “no binding”.
Still for that read-out and setting: the result for “XRCC5 (endogenous, SW48) (from UniProt P13010 1-732)” reads “binds”.

Another test has as its target p53 (endogenous, wild type, SW48) (human (endogenous in SW48)) (UniProt P04637). The test can be described thus: affinity purification with mass spectrometry.
For the substance “XRCC5 (endogenous, SW48) (from UniProt P13010 1-732)”, the binding entry was “binds”.
